For assay [1], the target named is T1, vitamin D receptor, mouse hippocampus (mouse (endogenous in hippocampal tissue)) (UniProt P48281).
T1 sequence: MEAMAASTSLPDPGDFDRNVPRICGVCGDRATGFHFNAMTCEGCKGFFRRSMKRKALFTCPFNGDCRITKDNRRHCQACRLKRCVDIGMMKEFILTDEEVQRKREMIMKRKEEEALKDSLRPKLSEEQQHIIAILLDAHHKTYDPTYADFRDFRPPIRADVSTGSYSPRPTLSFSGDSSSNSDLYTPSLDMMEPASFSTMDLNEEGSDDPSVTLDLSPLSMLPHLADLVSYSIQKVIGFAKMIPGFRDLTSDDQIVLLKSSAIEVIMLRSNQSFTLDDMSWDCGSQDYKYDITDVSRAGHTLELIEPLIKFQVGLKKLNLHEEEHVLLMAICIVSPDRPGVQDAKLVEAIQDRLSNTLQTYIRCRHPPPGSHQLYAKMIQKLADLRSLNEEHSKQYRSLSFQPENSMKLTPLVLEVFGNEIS
The assay is described as follows: co-IP.

Chains of the proteins cited; added tags and fusions are not shown.
UniProt P19793: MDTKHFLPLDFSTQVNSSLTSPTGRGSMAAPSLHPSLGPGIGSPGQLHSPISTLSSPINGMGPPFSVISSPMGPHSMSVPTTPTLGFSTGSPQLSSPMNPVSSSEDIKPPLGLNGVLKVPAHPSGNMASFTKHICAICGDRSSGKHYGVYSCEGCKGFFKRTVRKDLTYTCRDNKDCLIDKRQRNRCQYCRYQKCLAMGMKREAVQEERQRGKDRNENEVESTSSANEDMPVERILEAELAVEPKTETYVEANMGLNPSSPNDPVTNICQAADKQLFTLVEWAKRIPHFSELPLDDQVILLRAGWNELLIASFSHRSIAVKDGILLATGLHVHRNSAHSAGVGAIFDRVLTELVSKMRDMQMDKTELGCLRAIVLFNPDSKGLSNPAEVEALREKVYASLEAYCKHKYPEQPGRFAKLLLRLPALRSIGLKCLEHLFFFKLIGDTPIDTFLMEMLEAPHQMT
UniProt P02340: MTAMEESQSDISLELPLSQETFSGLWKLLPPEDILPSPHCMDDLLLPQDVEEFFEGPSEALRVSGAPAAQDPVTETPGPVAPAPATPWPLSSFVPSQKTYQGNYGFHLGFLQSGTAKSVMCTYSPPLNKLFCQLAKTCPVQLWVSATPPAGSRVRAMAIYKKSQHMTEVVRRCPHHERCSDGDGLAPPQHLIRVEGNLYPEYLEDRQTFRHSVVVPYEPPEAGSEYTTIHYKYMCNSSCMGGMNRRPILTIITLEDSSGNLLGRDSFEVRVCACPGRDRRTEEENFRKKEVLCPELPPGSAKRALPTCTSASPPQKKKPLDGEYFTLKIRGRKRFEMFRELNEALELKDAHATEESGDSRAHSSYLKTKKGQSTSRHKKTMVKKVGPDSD

Assay [2] concerns the target T2, vitamin D receptor, human hippocampal tissue (human (endogenous in postmortem hippocampal tissue)) (UniProt P11473).
T2 sequence: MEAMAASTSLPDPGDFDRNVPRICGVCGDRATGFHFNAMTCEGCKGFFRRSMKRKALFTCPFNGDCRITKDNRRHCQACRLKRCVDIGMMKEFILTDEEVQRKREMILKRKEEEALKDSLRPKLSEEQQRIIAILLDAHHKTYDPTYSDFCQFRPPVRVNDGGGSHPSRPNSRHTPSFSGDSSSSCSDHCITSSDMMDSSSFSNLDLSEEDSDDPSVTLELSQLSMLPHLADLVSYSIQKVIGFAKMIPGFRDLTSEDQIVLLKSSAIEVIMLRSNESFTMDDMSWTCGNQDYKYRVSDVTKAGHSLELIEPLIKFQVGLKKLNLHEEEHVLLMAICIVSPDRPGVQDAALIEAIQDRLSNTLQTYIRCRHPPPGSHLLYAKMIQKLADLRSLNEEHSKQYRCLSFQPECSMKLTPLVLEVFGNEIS
Put plainly: proximity ligation.

The target of assay [3] is T3, vitamin D receptor, SH-SY5Y cells (human (endogenous in SH-SY5Y)) (UniProt P11473).
T3 sequence: T2 sequence
Put plainly: co-IP.

Assay [4] addresses retinoid X receptor alpha (pCMV-BD-RXRα, two-hybrid bait) (UniProt P19793). The assay is described as follows: two-hybrid.

No constants are given. Whether binding was seen depends on the method and setting. For some of these results: In cells and extracts the contact can be indirect. Some results given as binding are weak or reduced against the parent protein; the word gives no strength. For some of these results: Where a sequence is shown, tags or fusion partners need not be part of it.

As to “p53, mouse hippocampus (from UniProt P02340 1-390)”, in assay [1], the binding result is recorded as “binds”. Take “p53, human hippocampal tissue (from UniProt P04637 1-393)”: in assay [2], the binding entry was “binds”. Take “p53, SH-SY5Y cells (from UniProt P04637 1-393)”: in assay [3], the binding entry was “binds”.

B1: vitamin D receptor (pCMV-AD-VDR, two-hybrid prey) (protein, UniProt P11473 1-427)
chain: T2 sequence
Take B1: in assay [4], the binding result is given as “binds”.

These data come from publication doi:10.1101/2021.05.06.443028.
